4 compounds from PMC12736018, “Stereoselective Cytotoxicity of Enantiopure 3,3-Dichloro-γ-lactams: Correlating In Vitro Activity with In Vivo Tolerability” (Molecules, 2025) can be followed below.

Each structure is given as a SMILES string. Values joined by “and” are separate entries in the source; they are usually repeats but may differ in a detail not shown here. Identical values can stand only once. Marks after values point to notes of the source that are not given here. A value given as a limit tells only on which side of the number the result lay.

What all share (type): cell-based, human
In data set [1] the test system is HeLa cells. The experiment in a line: NRU cell viability assay, HeLa. Particulars: for SI (3T3/HeLa): IC50 (3T3)/IC50 (HeLa); for SI (HaCaT/HeLa): IC50 (HaCaT)/IC50 (HeLa). How it is done: (§1) The murine Swiss albino fibroblast (3T3), the immortal human keratinocyte (HaCaT), the squamous cell carcinoma (A431), the human epithelial carcinoma (HeLa) and the human breast adenocarcinoma (MCF-7) cell lines were sourced from Celltec UB (Barcelona, Spain). All cells were maintained and grown in DMEM medium (4.5 g/L glucose) supplemented with 10% (v/v) FBS, 2 mM L-glutamine, 100 U/mL penicillin and 100 μg/mL streptomycin at 37 °C, 5% CO2. Cells were routinely cultured in 75 cm^2 culture flasks and were trypsinized using trypsin-EDTA when the cells reached approximately 80%. Cell concentration in the resulting suspension was assessed using the trypan blue assay, which enables direct discrimination between viable (unstained) and non-viable (blue) cells.
(§2) T3 and HaCaT cells (1 × 10^5 cells/mL), along with A431, HeLa, and MCF-7 cells (5 × 10^4 cells/mL), were cultured at defined seeding densities in the 60 central wells of a 96-well plate. Cells were first incubated for 24 h under standard incubator conditions (5% CO2, 37 °C). After this period, the culture medium was removed, and the cells were incubated for an additional 24 h with their corresponding compound solutions (1 mg/mL) previously diluted in a minimum amount of DMF (dimethylformamide) and then in DMEM medium supplemented with 5% FBS (100 µL) at the required concentration range (20 to 250 µg/mL). Cell viability following exposure to the lactam derivatives was evaluated using two complementary assays: NRU and MTT.
(§3) The neutral red uptake (NRU) assay is based on the accumulation of dye in the lysosomes of viable cells. After the cells were incubated for 24 h with the corresponding systems, the medium was removed, and the solutions were incubated with the NR dye (Sigma-Aldrich, St. Louis, MO, USA) solution (50 µg/mL) dissolved in the medium, without FBS and without phenol red (Lonza, Verviers, Belgium), for 3 h. Cells were then washed with sterile PBS, followed by the addition of 100 µL of a solution containing 50% absolute ethanol and 1% acetic acid in distilled water to extract the dye. To promote the total dissolution of the dye, plates were placed in a microtiter-plate shaker for 5 min at room temperature. The absorbance of the resulting solutions was measured at 550 nm (Bio-Rad 550 microplate reader, Bio-Rad California, Hercules, CA, USA). Finally, the effect of each treatment was calculated as the percentage of dye uptake by viable cells relative to the control cells (cells without any treatment). Finally, the effect of each treatment was calculated as the percentage of dye retained by viable cells compared with untreated control cells.
(§4) The half-maximal inhibitory concentration (IC50) values for the different formulations, across cell lines and experimental endpoints, were obtained by fitting the concentration-dependent viability curves. […] These findings reflect the very low cytotoxicity of the compounds toward these cell lines.

The test system of data set [2] is A431 cells. The experiment in a line: NRU cell viability assay, A431. Particulars: for SI (3T3/A431): IC50 (3T3)/IC50 (A431); for SI (HaCaT/A431): IC50 (HaCaT)/IC50 (A431). Here is the method: as §1, §2, §3, §4
Data set [3] has as its system A431 cells. Briefly: MTT cell viability assay, A431. The settings on record: for SI (3T3/A431): IC50 (3T3)/IC50 (A431); for SI (HaCaT/A431): IC50 (HaCaT)/IC50 (A431). Here is the method: as §1, §2
(§5) Only living cells can reduce the yellow tetrazolium salt 3-(4,5-dimethyl-2-thiazolyl)-2,5-diphenyltetrazolium bromide (MTT) to insoluble purple formazan crystals. After a 24 h incubation of the cells with their corresponding NPs, the medium was removed and 100 µL of MTT (Sigma-Aldrich, St. Louis, MO, USA) in PBS (5 mg/mL) diluted 1:10 in culture medium without phenol red and without FBS (Lonza, Verviers, Belgium) was added to the cells. After 3 h of incubation, the medium was removed. Thereafter, 100 µL of DMSO (Sigma-Aldrich, St. Louis, MO, USA) was added to each well to dissolve the purple formazan crystals. Agitation and absorbance measurements of the extracted solution were carried out under the same conditions described for the NRU assay. The effect of each treatment was then expressed as the percentage of tetrazolium salt reduction by viable cells relative to untreated controls.
as §4
In general terms: Tetrazolium assays rely on reduction of a dye to a coloured formazan, in cell work by metabolically active cells.

The subject of data set [4] is MCF-7 cells. The experiment in a line: MTT cell viability assay, MCF-7. Particulars: for SI (3T3/MCF-7): IC50 (3T3)/IC50 (MCF-7); for SI (HaCaT/MCF-7): IC50 (HaCaT)/IC50 (MCF-7). Here is the method: as §1, §2, §5, §4
Data set [5] deals with HeLa cells. Briefly: MTT cell viability assay, HeLa. The settings on record: for SI (3T3/HeLa): IC50 (3T3)/IC50 (HeLa); for SI (HaCaT/HeLa): IC50 (HaCaT)/IC50 (HeLa). Here is the method:
as §1, §2, §5, §4

Data set [6] relates to MCF-7 cells. Briefly: NRU cell viability assay, MCF-7. Particulars: IC50 (3T3)/IC50 (MCF-7). Here is the method: as §1, §2
as §3, with “[…]” for “control cells.”

Consider `C[C@@H]1CN([C@@H](C)c2ccccc2)C(=O)C1(Cl)Cl` [Compound 3, (R)-3,3-dichloro-4-methyl-1-((S)-1-phenylethyl)pyrrolidin-2-one], for which, in the data set on HeLa cells [1], the “SI (3T3/HeLa)” value is reported as 0.41 and the “SI (HaCaT/HeLa)” value is recorded as >1.56 ^a,epi-3,4. Also, in the data set with A431 cells [2], the “SI (3T3/A431)” value is given as 1.08 ^a; the “SI (HaCaT/A431)” value is > 4.15 and >4.15 ^a,epi-3,4. Also, in the data set on A431 cells [3], the “SI (3T3/A431)” value is on record as 0.54 and the “SI (HaCaT/A431)” value was 2.19 ^epi-3,4,epi-4. Moreover, in the data set on MCF-7 cells [4], the “SI (3T3/MCF-7)” value is 0.16 and the “SI (HaCaT/MCF-7)” value was determined as 0.64. Besides, in the data set on HeLa cells [5], the “SI (3T3/HeLa)” value was 0.16 ^epi-4 and the “SI (HaCaT/HeLa)” value is 0.67. The “SI (3T3/MCF-7)” value with MCF-7 cells [6] is reported as 1.08 ^a,epi-3,4,epi-4.
Regarding `C[C@H](c1ccccc1)N1C[C@H](C)C(Cl)(Cl)C1=O` [Compound 4], in the data set with HeLa cells [1], the “SI (3T3/HeLa)” value is 2.23 and 2.23 ^a,3,epi-4; the “SI (HaCaT/HeLa)” value is recorded as >3.23 ^a,epi-3. Also, in the data set on A431 cells [2], the “SI (3T3/A431)” value was 1.60 and 1.60 ^a,3; the “SI (HaCaT/A431)” value was >2.32 ^a,epi-4. In addition, in the data set on A431 cells [3], the “SI (3T3/A431)” value is 0.58 and the “SI (HaCaT/A431)” value was determined as 0.35. For the same compound, in the data set on MCF-7 cells [4], the “SI (3T3/MCF-7)” value is given as 1.22 ^a,3,epi-3,epi-4 and the “SI (HaCaT/MCF-7)” value stood at 0.74. In the data set on HeLa cells [5], the “SI (3T3/HeLa)” value is 1.01 ^3,epi-4 and the “SI (HaCaT/HeLa)” value is 0.61. Besides, the “SI (3T3/MCF-7)” value in the data set with MCF-7 cells [6] is listed as <0.69.
For `C[C@@H](c1ccccc1)N1C[C@H](C)C(Cl)(Cl)C1=O` [epi-3], the figures for the “SI (3T3/HeLa)” value in the data set with HeLa cells [1] and in the data set with HeLa cells [5] were 0.36 and <0.27 ^4, respectively. The “SI (HaCaT/HeLa)” value in the data set with HeLa cells [1] is recorded as >1.17. In addition, the results for the “SI (3T3/A431)” value with A431 cells [2] and in the data set with A431 cells [3] were 0.63 ^3,4 and 0.40, respectively. Further, the “SI (HaCaT/A431)” value is >2.03 ^a,4,epi-4 in the data set with A431 cells [2] and >1.47 ^4 in the data set with A431 cells [3]. Further, the figures for the “SI (3T3/MCF-7)” value in the data set with MCF-7 cells [4] and in the data set with MCF-7 cells [6] were <0.27 and <0.31 ^4,epi-4, respectively.
Consider `C[C@H](c1ccccc1)N1C[C@@H](C)C(Cl)(Cl)C1=O` [epi-4], for which the “SI (3T3/HeLa)” value in the data set with HeLa cells [1] is <0.61; in the data set on HeLa cells [5] it was <0.58. The “SI (3T3/A431)” value is reported as 2.48 ^3,4,epi-3 with A431 cells [2], 2.48 with A431 cells [2] (listed as compound epi-4) and 0.82 ^epi-3 with A431 cells [3]. Also, the “SI (HaCaT/A431)” value with A431 cells [2] is given as >4.05 ^a; in the data set with A431 cells [2] (listed as Compound epi-4), > 4.05; in the data set on A431 cells [3], >1.41 ^4. Moreover, the “SI (3T3/MCF-7)” value is reported as <0.58 ^3 in the data set with MCF-7 cells [4] and <0.61 in the data set with MCF-7 cells [6].
